Measured data: PubChem BioAssay AID652259 (Drosophila RNAi Screening Center, 2013)
The deposit covers about 22,000 reagents; shown is a random part of those that have a named target and a result. In the full data, 233 (1.1%) got an active call. 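Light values are raw, unnormalised plate reads; the ratio scores behind the reporter calls were not deposited.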 The record does not give: the amount of reagent, the time to read-out, the dose of the treatment.

Aim: 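Identify new Wingless signalling regulators in fly cells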 (primary screen)
System: Drosophila clone 8 imaginal disc epithelial cells
Knock-down reagent: long dsRNA against Drosophila genes
Conditions: pathway stimulated by co-transfected Wingless expression plasmid
Measured: 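Firefly luciferase from a tcf-site Wingless reporter, measured alongside co-transfected Renilla luciferase that tracks transfection; pathway stimulated by a Wingless plasmid; the firefly-to-Renilla ratio is not deposited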
Direction: firefly reporter light: higher = more Wg reporter light, before normalisation; Renilla control light: higher = more transfected or surviving cells
Hit rule: 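a knock-down is a candidate when at least two out of four statistical tests show it departing from its plate mean; one test alone signals a weak candidate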
Calls: active = candidate regulator (raises or lowers reporter); inactive = not a candidate

Gene	amplicon	firefly reporter light, replicate 1	firefly reporter light, replicate 2	Renilla control light, replicate 1	Renilla control light, replicate 2	call
swi2	DRSC06457	4475		2364		inactive
CG9784	DRSC20210	18564		6901		inactive
GNBP-like3 (GNBP-like 3)	DRSC06385	7132		2423		inactive
GEFmeso (Guanine nucleotide exchange factor in mesoderm)	DRSC06748	12925		3817		inactive
GEFmeso (Guanine nucleotide exchange factor in mesoderm)	DRSC06940	5506		2018		inactive
GEFmeso (Guanine nucleotide exchange factor in mesoderm)	DRSC21475	3.85e5	4.42e5	2.34e5	1.61e5	inactive
Prosbeta5R2 (Proteasome beta5 subunit-related 2)	DRSC01617	21954		11556		inactive
prc (pericardin)	DRSC11385	6561		2919		inactive
BigH1 (Histone H1 variant BigH1)	DRSC15491	4592		1977		inactive
CG6191	DRSC05938	10530		1815		inactive
rha	DRSC17044	1964	8112	1376	1053	inactive
mAChR-B (muscarinic Acetylcholine Receptor, B-type)	DRSC16345	17301		4128		inactive
CG15336	DRSC18019	23909		9484		inactive
Clp (Clipper)	DRSC00746	2145	3473	1339	2011	inactive
CG13003	DRSC19522	20112		9287		inactive
Hip1 (Huntingtin interacting protein 1)	DRSC09812	4820		2320		inactive
CstF50 (Cleavage stimulation factor 50 kD subunit)	DRSC15434	1120	5366	836	2525	inactive
Noc2 (Nucleolar complex protein 2)	DRSC03165	6517		2231		inactive
Tak1 (TGF-beta activated kinase 1)	DRSC20390	3856		1421		inactive
Tak1 (TGF-beta activated kinase 1)	DRSC20561	22154		9348		inactive
Tak1 (TGF-beta activated kinase 1)	DRSC20562	32193		15897		inactive
Tdg (Thymine DNA glycosylase)	DRSC17119	4436		1739		inactive
Tdg (Thymine DNA glycosylase)	DRSC17169	21592		11243		inactive
CG8321	DRSC07148	8961		2601		inactive
CG6511	DRSC10656	1176	7104	1217	3572	inactive
Cpr97Eb (Cuticular protein 97Eb)	DRSC15123	8917		3555		inactive
epsilonTry (epsilonTrypsin)	DRSC07611	5018		2699		inactive
CG5062	DRSC18385	25826		11904		inactive
CG42269	DRSC10670	1419	6009	817	2146	inactive
CG42269	DRSC10672	1385	9650	736	2948	inactive
